From PubChem BioAssay AID504467 (National Center for Advancing Translational Sciences (NCATS), 2011)
Among all 330,000 compounds or so, about 7,700 (2.3%) were called active. Inconclusive means that the source gave no clear call. Such entries were picked first, then a sample of the others. Calls follow the shape of the dose curve; as a rule, active = well fitted inhibition curve with a large enough effect; inconclusive = small, poorly fitted or top-dose-only effect, or effect the other way; inactive = flat fitted curve, though single readings scatter. Where the call is inconclusive, the potency comes from a doubtful curve fit.

Experiment: qHTS screen for small molecules that inhibit ELG1-dependent DNA repair in human embryonic kidney (HEK293T) cells expressing luciferase-tagged ELG1; also: nearly all actives have a fitted effect of over 55% in size
Settings: HEK293T ELG1-luciferase reporter, luminescence, 16 h, DNA damage induced by 5-fluorouridine; series mostly up to 46.1 µM
Summary of the method: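 Luminescence from the luciferase reporter, measured 30 min after ONE-Glo reagent at room temperature, was the read-out. Beforehand, 2,000 cells per well were exposed for 16 hr at 37 °C to 5-fluorouridine together with compound or vehicle.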
Potency is read from the fitted curve at half-maximal effect.

Row | SMILES | Potency
1 | CCc1ccc(/C=C2/SC(=S)N(CCC(=O)Nc3cccnc3)C2=O)cc1 | inactive
2 | CCC(C)N1CCN(C(=O)C2CCN(S(=O)(=O)c3c(C)noc3/C=C/c3ccco3)CC2)CC1 (stereo not given) | inconclusive: 32.6 µM [inhibitor, partial curve, poor fit]
3 | Clc1cccc(Cl)c1CNc1ccc(N2CCCC2)cc1 | inconclusive: 29.1 µM [activator, single point]
4 | CC12CCC(C(=O)N(Cc3ccccc3)Cc3ccccc3)(OC1=O)C2(C)C (stereo not given) | inconclusive: 18.4 µM [inhibitor, partial curve]
5 | Nc1ccc2nc(SCC(=O)c3ccccc3)sc2c1 | inconclusive: 25.9 µM [activator, single point]
6 | Cc1ccc(C(O)c2nccn2C)o1 (stereo not given) | inactive
7 | C=CCc1cccc(CNc2nc3ccccc3n2CC)c1O | inconclusive: 20.6 µM [inhibitor, single point]
8 | CCOc1cc(NC(=S)Nc2ccc(Cl)cc2)c(OCC)cc1NC(C)=O | active: 7.3 µM
9 | Cc1ccc(N2Cc3ccccc3C2=O)cc1 | inconclusive: 2.06 µM [activator, full curve]
10 | CCOC(=O)Cc1c(C)nc2c(-c3ccccc3)c(-c3ccccc3)[nH]n2c1=O | inactive
11 | Cn1ncc([N+](=O)[O-])c1C(=O)Nc1nc2ccccc2n1CCN1CCCCC1 | inactive
12 | O=C(N/N=C/c1cccc(F)c1)c1c(O)c2ccccc2[nH]c1=O | inconclusive: 9.2 µM [activator, partial curve]
13 | CCCc1c(C(=O)N2CCN(c3ccccc3OC)CC2)cnn1-c1ccccc1 | active: 16.4 µM
14 | CC(O)CNc1ncnc2nc[nH]c12 (stereo not given) | inactive
15 | CCCCCCSc1nsc(NC(=O)CCC)n1 | inconclusive: 29.1 µM [activator, single point]
16 | COc1cccc(C2CC(=O)Nc3cc(OC)c(OC)c(OC)c32)c1OC (stereo not given) | inconclusive: 20.6 µM [activator, partial curve]
17 | Cc1ccc(-c2ccnc3c(Cl)c(C)nn23)cc1 | inactive
18 | O=C(NCCCN1CCOCC1)c1ccc(Cl)c(S(=O)(=O)N2CCCCCC2)c1 | inconclusive: 23.1 µM [inhibitor, partial curve]
19 | CC1CCCC(NC(=O)C2CCN(S(=O)(=O)N3CCCCC3)CC2)C1C (stereo not given) | inactive
20 | CC(C)c1ccccc1N=C1SCCCN1C(=O)c1cccc(N2C(=O)CCC2=O)c1 | inactive
21 | O=C(C1COc2ccccc2O1)N1CCN(Cc2ccc3c(c2)OCO3)CC1 (stereo not given) | inconclusive: 23.1 µM [inhibitor, partial curve]
22 | CC(C)CNC(=O)C1CCN(S(=O)(=O)c2ccc(-n3cnnn3)cc2)CC1 | inconclusive: 18.3 µM [activator, partial curve, poor fit]
23 | Cc1nc2cc(-c3cccc(F)c3)nn2c(C)c1CCC(=O)NC(C)c1ccc2c(c1)OCCO2 (stereo not given) | inconclusive: 18.4 µM [inhibitor, single point]
24 | COC(=O)c1ccc(NC(=O)COC(=O)C2CC(=O)N(Cc3ccccc3)C2)cc1 (stereo not given) | inconclusive: 23.1 µM [activator, partial curve, poor fit]

3 structures out of the list, arranged by length of the SMILES, smallest number first:
Row | SMILES | Potency
14 | CC(O)CNc1ncnc2nc[nH]c12 (stereo not given) | inactive
3 | Clc1cccc(Cl)c1CNc1ccc(N2CCCC2)cc1 | inconclusive: 29.1 µM [activator, single point]
24 | COC(=O)c1ccc(NC(=O)COC(=O)C2CC(=O)N(Cc3ccccc3)C2)cc1 (stereo not given) | inconclusive: 23.1 µM [activator, partial curve, poor fit]

Additional records

Row | SMILES | Potency
25 | CC(C)Cn1c(CCNC(=O)c2ccco2)nc2ccccc21 | inconclusive: 20.6 µM [activator, partial curve]
26 | CC(=O)Nc1ccccc1P(=O)(c1ccccc1)c1ccccc1OC(C)=O (stereo not given) | inconclusive: 23.1 µM [activator, partial curve]
27 | O=C(NC1CCCCC1)C(c1cccnc1)N(C(=O)CCl)c1ccccc1Cl (stereo not given) | inconclusive: 13 µM [inhibitor, partial curve, poor fit]
28 | Cc1c(Cl)cccc1-n1c(SCC(=O)NCc2cccs2)nnc1-c1ccncc1 | inconclusive: 16.4 µM [inhibitor, single point]
29 | Cc1ccc(Cl)cc1N1CCN(C(=O)CCCn2c(=O)c3cccn3c3cccnc32)CC1 | inconclusive: 29.1 µM [inhibitor, single point]
30 | O=C(CCN1C(=O)/C(=C\C=C\c2ccccc2)SC1=S)Nc1ccc(C(=O)O)cc1 | inconclusive: 13 µM [activator, partial curve]
31 | COc1ccc(C(=O)C2CCCN(C(=O)c3cnsn3)C2)c(C)c1 (stereo not given) | inconclusive: 29.1 µM [activator, single point]
32 | O=C(NCC1CCCO1)c1ccccc1-c1nc(-c2ccccc2)no1 (stereo not given) | inactive
33 | O=C(c1ccccc1N(Cc1ccccc1)S(=O)(=O)c1ccccc1)N1CCOCC1 | inactive
34 | CCOC(=O)c1cnc2c(C)c(C)ccc2c1NCCN1CCOCC1 | inconclusive: 7.3 µM [inhibitor, single point]
35 | c1ccc(-n2nc3ccccc3n2)cc1 | inconclusive: 23.1 µM [activator, partial curve, poor fit]
36 | COc1ccc(OC)c(C(=O)N2CCC(C(=O)c3ccc(F)cc3)CC2)c1 | inconclusive: 23.1 µM [inhibitor, partial curve, poor fit]
37 | CCN1/C(=C/c2ccc3cc(C)cc(C)c3[n+]2CC)Sc2cc(C)ccc21 | inconclusive: 1.64 µM [inhibitor, partial curve]
38 | CC1(C)CC(N2CCN(C(c3ccccc3)c3ccccc3)CC2)=CC(=[N+]2CCCCC2)C1 | inconclusive: 5.17 µM [inhibitor, partial curve]
39 | CC(=O)Nc1ccc(S(=O)(=O)N2CCC(n3cnc4cc(F)ccc43)CC2)cc1 | active: 10 µM
40 | CSc1ccc(/C=C(/NC(=O)c2ccccc2)C(=O)N2CCN(C)CC2)cc1 | inactive
41 | COc1ccc(-c2nn(-c3ccccc3)cc2/C=C(/C#N)C(N)=O)cc1[N+](=O)[O-] | inconclusive: 4.11 µM [inhibitor, full curve]
42 | CC(=O)Oc1ccc(N2C(=O)CCC2=O)cc1 | inactive
43 | O=C(Nc1ccn(Cc2ccccc2)n1)c1cccc(F)c1 | inconclusive: 4.61 µM [activator, full curve]
44 | COc1ccc(N(CC(=O)Nc2ccc3c(c2)OCO3)S(=O)(=O)c2ccc(C)cc2)cc1OC | active: 25.9 µM
45 | CC(C)[C@H](N[C@@H](C)c1ccccc1)c1c(O)ccc2ccccc12 | inactive
46 | CCNC(=S)N1CCN(S(=O)(=O)c2ccccc2C(F)(F)F)CC1 | inconclusive: 11.6 µM [inhibitor, partial curve, poor fit]
47 | Nc1cc(=O)[nH]c(SCC(=O)Nc2ccccc2-c2ccccc2)n1 | inactive
48 | COc1cc(/C=N/NS(=O)(=O)c2ccccc2)ccc1OS(=O)(=O)c1ccc(C)cc1 | inactive

Row | SMILES | Potency
49 | Cc1[nH]nc(NCCO)c1[N+](=O)[O-] | inconclusive: 2.59 µM [inhibitor, partial curve, poor fit]
50 | CCN(CC(=O)Nc1ccc(NC(C)=O)cc1)C(=O)CCN1C(=O)c2cccc([N+](=O)[O-])c2C1=O | inconclusive: 7.3 µM [activator, partial curve]
51 | CNC(=O)Nc1ccc2nc(C)sc2c1 | inconclusive: 14.6 µM [activator, partial curve]
52 | CC(=O)c1ccc(COC(=O)c2ccccc2NC(=O)C(C)C)cc1 | inconclusive: 25.9 µM [inhibitor, single point]
53 | Cc1cc2ncn(C(=O)N3CCCC3)c2cc1C | inconclusive: 20.6 µM [activator, single point]
54 | CN(C)S(=O)(=O)c1cccc(NC(=S)N/N=C/c2cc(Br)ccc2O)c1 | active: 2.91 µM
55 | COCCn1c(N)c(C(=O)NS(=O)(=O)c2ccc(C)cc2)c(=O)[nH]c1=O | inconclusive: 2.91 µM [inhibitor, partial curve]
56 | CN(Cc1c(F)cccc1Cl)C(=O)c1cc2ccccc2o1 | inconclusive: 20.6 µM [activator, single point]
57 | C#CCn1cc[n+](CC(=O)N(C)C)c1 | inactive
58 | CCOC(=O)C1CCN(C(C(=O)Nc2ccc3c(c2)OCCO3)c2ccccc2)CC1 (stereo not given) | inactive
59 | Cc1ccc2c(c1)nnn2C1CCN(CC(=O)NNC(=O)c2ccco2)CC1 | inactive
60 | CCCNS(=O)(=O)c1ccc(OCC(=O)N2CCN(c3ccccc3)CC2)cc1 | inconclusive: 9.2 µM [inhibitor, partial curve, poor fit]
61 | Cc1nc(SCC(=O)N(CC(C)C)C2CCS(=O)(=O)C2)c2c(C)c(C)sc2n1 (stereo not given) | inactive
62 | COC(=O)C(NC(=O)c1ccccc1)(Nc1nccs1)C(F)(F)F (stereo not given) | inconclusive: 0.366 µM [inhibitor, partial curve, poor fit]
63 | Oc1c(C(c2ccccc2Cl)N2CCCC2)ccc2cccnc12 (stereo not given) | inconclusive: 6.51 µM [inhibitor, single point]
64 | CCOCCOC(=O)c1[nH]c2c(c1C)C(=O)CC(c1cccs1)C2 (stereo not given) | inconclusive: 29.1 µM [inhibitor, single point]
65 | CCOc1ccc(CCNC(=O)CN2CCN(Cc3ccccc3C)C2=O)cc1OCC | inconclusive: 14.6 µM [inhibitor, partial curve, poor fit]
66 | C[C@@H](C(=O)OCC(=O)NCCc1ccc(S(N)(=O)=O)cc1)N1C(=O)C2CCCCC2C1=O (stereo not given in full) | inactive
67 | Cc1ccc(-c2cc(C(=O)N/N=C/c3c[nH]c4ccccc34)[nH]n2)cc1 | inactive
68 | Cc1nc(S/C(=C/c2ccc(-c3cccc(Cl)c3)o2)C(=O)O)n[nH]1 | inactive
69 | CC(=O)N/C(=C\c1ccccc1)C(=O)OCC(=O)NC1CCS(=O)(=O)C1 (stereo not given) | inconclusive: 16.4 µM [activator, single point]
70 | O=C(NC1CCCCC1)Oc1cc2oc(=O)sc2cc1Br | inconclusive: 6.51 µM [inhibitor, partial curve, poor fit]
